We go through one substance from publication PMC11290222.

Amino acid sequences for entries named in this document (tags omitted).
UniProt P83949: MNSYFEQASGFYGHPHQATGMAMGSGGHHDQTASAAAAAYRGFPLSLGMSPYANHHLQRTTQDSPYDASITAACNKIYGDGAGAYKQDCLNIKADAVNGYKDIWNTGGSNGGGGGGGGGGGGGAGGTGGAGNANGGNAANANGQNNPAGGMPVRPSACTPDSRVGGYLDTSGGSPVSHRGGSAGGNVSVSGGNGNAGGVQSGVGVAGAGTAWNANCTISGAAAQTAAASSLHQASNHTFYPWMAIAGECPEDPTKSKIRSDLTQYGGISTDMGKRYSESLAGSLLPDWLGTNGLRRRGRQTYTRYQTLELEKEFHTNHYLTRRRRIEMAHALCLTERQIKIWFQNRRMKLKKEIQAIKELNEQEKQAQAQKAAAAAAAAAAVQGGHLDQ
UniProt P02833: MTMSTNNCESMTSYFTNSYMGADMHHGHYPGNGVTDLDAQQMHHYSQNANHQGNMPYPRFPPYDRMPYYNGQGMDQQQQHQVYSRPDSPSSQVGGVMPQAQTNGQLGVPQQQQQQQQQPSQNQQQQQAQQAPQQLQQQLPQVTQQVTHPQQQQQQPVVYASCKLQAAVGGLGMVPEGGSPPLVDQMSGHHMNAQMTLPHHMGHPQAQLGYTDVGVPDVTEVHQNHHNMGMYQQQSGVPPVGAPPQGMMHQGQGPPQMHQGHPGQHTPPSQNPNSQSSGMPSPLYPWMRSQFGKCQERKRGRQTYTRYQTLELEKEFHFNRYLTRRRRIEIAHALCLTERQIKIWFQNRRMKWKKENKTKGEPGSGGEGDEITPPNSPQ

The assay addresses Ubx full-length fused to VN, expressed in transgenic flies (UAS-VNUbx) (Drosophila) (UniProt P83949). Put plainly: split reporter; BiFC in Drosophila embryos (nullo-, antp-, ptc-Gal4) and imaginal discs (dll-Gal4), UAS/Gal4 co-expression; crosses at 25 °C overnight, embryos 48 h at 4 °C before visualisation.

These are yes or no findings as the source states them, for the method shown. In cells and extracts the contact can be indirect. Some entries that bind do so weakly or less than the wild type.

For “Antp full-length fused to VC, expressed in transgenic flies (UAS-VCAntp) (from UniProt P02833 1-378)”, the binding result is given as “binds”.
